Measurements: publication PMC10247859
No constants are given. Whether binding was seen depends on the method and setting. Some entries that bind do so weakly or less than the wild type.

Chains of the proteins cited; added tags and fusions are not shown. Lines headed by an entry give the natural chain unless they say otherwise; changes in a name come on top.
UniProt P32908: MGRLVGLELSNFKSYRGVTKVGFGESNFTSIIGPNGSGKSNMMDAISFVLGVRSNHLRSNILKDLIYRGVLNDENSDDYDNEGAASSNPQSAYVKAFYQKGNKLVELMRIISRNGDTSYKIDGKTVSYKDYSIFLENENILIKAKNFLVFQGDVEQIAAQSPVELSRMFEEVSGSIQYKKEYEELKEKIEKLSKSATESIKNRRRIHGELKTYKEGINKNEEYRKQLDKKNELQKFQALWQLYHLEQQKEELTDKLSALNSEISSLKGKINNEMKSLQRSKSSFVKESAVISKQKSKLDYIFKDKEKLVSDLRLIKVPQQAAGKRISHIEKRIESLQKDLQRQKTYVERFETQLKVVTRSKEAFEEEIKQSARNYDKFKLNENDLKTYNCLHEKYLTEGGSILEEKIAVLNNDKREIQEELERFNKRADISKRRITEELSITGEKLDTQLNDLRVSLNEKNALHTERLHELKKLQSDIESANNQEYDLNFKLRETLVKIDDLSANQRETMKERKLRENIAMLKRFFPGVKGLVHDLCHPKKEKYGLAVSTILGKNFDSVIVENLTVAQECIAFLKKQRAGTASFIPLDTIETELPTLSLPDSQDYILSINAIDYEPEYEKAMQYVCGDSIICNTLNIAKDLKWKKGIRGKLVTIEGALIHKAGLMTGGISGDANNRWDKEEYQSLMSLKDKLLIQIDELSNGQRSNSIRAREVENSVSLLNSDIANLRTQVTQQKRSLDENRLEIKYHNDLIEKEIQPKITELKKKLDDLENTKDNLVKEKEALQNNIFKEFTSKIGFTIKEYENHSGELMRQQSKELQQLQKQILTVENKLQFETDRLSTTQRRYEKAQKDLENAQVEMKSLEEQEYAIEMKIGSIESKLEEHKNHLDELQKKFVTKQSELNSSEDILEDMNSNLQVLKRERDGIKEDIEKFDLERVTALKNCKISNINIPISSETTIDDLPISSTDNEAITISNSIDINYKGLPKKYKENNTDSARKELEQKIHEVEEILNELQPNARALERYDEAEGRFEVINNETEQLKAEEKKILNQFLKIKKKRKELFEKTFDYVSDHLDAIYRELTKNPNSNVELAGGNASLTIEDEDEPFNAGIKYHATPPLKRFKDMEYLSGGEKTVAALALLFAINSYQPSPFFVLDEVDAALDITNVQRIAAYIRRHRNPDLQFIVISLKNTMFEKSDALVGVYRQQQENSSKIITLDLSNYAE
UniProt P47037: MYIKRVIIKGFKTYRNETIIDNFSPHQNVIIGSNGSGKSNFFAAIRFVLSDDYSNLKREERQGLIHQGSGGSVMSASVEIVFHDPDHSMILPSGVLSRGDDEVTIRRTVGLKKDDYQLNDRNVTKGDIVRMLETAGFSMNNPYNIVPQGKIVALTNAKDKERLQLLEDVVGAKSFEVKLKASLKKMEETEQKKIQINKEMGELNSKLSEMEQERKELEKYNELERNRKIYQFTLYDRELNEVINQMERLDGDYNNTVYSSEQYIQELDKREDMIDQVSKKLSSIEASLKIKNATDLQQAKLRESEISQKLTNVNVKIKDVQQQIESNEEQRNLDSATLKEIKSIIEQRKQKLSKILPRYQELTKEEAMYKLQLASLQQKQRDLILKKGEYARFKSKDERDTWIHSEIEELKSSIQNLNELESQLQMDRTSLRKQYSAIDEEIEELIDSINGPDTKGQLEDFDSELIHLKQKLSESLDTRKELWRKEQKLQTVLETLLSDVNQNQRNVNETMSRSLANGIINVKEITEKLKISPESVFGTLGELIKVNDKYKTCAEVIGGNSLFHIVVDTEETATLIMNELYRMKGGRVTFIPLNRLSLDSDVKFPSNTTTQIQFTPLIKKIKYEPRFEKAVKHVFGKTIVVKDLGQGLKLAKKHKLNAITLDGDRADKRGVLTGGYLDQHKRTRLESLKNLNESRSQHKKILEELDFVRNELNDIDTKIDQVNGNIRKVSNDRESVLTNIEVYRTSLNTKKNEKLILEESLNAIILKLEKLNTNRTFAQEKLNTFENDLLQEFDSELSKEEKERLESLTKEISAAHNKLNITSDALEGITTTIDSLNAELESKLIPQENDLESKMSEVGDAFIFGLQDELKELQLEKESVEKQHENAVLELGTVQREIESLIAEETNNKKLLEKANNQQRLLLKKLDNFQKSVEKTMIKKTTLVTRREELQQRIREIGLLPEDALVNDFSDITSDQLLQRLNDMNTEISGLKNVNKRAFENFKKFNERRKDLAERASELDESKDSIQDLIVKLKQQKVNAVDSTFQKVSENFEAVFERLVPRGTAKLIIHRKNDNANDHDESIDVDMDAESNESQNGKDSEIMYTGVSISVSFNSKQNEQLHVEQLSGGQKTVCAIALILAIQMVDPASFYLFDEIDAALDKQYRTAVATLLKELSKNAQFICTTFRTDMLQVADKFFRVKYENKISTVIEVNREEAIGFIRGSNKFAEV
UniProt Q12158: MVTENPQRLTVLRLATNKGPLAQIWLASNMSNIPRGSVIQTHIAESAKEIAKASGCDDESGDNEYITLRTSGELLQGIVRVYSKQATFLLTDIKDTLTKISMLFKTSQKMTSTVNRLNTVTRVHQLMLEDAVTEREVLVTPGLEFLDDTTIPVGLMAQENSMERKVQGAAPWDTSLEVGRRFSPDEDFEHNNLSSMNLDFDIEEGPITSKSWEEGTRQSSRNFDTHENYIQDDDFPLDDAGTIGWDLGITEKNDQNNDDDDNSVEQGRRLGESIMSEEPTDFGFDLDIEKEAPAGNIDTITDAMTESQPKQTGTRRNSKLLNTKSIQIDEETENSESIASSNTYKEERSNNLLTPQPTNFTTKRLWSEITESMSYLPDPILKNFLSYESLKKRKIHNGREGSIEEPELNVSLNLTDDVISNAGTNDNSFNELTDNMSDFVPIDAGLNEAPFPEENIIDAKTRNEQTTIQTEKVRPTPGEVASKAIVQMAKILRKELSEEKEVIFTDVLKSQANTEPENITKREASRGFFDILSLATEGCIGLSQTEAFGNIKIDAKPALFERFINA
UniProt P40541: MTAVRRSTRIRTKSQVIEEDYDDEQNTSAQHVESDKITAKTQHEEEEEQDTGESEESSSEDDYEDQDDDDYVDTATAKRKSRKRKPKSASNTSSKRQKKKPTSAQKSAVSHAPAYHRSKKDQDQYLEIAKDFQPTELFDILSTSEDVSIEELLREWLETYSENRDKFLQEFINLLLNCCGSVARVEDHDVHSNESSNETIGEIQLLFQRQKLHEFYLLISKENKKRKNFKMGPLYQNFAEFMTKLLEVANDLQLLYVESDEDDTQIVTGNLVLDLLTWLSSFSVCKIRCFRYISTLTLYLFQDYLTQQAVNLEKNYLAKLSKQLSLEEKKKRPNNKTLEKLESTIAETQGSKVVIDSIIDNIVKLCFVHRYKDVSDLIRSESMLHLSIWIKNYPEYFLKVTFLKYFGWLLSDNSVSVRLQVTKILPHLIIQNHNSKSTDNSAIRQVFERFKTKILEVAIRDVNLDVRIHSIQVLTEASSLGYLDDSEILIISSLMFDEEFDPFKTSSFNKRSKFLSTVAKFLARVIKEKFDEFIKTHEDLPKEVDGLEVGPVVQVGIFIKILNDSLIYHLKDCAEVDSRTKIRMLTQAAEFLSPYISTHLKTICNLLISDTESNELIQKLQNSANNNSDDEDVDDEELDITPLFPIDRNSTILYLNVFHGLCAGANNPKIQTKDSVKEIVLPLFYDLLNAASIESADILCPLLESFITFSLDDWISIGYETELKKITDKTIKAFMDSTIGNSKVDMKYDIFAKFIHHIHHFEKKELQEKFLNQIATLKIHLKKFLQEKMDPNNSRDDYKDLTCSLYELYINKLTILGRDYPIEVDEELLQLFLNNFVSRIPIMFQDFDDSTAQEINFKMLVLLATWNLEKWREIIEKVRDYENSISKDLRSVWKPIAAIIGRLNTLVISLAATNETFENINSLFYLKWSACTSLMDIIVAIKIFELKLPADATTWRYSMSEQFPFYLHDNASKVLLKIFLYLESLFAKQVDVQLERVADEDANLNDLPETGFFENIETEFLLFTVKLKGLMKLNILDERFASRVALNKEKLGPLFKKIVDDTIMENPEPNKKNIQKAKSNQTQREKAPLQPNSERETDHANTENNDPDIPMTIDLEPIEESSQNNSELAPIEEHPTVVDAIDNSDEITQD
UniProt P53840: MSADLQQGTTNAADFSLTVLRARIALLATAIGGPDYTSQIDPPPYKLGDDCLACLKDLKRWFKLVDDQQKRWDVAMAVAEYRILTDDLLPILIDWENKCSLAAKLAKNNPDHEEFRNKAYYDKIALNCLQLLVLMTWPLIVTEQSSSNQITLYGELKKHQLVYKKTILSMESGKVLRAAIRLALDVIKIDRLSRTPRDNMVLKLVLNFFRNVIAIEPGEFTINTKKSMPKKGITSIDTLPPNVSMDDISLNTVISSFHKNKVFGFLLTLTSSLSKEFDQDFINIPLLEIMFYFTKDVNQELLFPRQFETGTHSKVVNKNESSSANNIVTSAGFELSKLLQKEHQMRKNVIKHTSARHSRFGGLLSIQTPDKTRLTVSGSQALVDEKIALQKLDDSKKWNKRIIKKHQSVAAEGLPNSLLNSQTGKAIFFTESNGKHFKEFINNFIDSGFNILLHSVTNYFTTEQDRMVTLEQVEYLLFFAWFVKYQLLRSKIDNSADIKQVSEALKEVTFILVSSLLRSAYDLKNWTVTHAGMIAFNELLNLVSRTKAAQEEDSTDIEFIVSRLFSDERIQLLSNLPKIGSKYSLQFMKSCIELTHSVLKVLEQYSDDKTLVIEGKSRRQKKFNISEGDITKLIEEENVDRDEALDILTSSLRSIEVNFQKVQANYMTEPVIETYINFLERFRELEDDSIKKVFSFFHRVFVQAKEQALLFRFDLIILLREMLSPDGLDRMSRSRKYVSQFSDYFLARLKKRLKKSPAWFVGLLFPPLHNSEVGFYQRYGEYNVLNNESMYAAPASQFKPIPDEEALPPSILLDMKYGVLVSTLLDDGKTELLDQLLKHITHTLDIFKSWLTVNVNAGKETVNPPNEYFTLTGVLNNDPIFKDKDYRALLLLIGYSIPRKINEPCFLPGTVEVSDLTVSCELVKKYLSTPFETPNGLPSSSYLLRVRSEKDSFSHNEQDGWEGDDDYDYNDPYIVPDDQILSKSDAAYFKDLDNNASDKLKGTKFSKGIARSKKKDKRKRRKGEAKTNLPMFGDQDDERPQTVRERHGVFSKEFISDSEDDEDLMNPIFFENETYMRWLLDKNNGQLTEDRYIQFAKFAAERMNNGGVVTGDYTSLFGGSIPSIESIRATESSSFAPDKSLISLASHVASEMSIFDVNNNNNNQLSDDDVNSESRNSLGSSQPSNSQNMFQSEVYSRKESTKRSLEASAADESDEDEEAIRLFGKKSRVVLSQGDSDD

Biological target: cohesin tetramer complex (Smc1-Smc3-Scc1-Scc3) (S. cerevisiae (budding yeast)) (UniProt P32908+P47037+Q12158+P40541)
Assay: SEC; Superose 6 Increase 3.2/300; 25 mM HEPES-KOH pH 7.6, 100 mM sodium acetate, 0.5 mM TCEP, 2 mM EDTA; proteins at the same molarity incubated together or separately at 30 °C for 5 min; fractions analysed by immunoblotting; both purified

- binding: binds weakly
Substance: Tof1-Csm3 complex (from UniProt P53840 1-1238; Q04659 1-317)
